# Measured values from PubChem BioAssay AID1671190 (National Center for Advancing Translational Sciences (NCATS), 2021).
# Sequences of proteins named here, by UniProt entry; tags and fusion partners are left off. A change or cut given only in a name is not applied to a line headed by its entry.
# UniProt P18054: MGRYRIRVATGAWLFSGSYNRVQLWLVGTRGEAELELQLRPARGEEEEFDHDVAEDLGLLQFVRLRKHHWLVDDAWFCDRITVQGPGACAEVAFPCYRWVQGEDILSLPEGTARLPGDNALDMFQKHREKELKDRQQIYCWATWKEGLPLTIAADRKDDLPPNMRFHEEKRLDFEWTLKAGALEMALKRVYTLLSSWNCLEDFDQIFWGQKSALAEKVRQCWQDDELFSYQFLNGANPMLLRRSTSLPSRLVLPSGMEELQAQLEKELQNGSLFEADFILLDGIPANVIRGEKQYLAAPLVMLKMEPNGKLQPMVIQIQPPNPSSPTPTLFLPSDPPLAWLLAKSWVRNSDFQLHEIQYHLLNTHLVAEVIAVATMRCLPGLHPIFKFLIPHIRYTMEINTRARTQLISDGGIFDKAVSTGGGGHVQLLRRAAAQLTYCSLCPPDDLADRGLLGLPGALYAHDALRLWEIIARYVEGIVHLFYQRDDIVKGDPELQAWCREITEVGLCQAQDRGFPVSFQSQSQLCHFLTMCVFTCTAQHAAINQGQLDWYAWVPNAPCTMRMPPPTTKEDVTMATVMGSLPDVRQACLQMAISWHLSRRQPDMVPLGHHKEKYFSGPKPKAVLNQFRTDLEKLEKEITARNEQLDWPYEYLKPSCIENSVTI
# The campaign covered roughly 580,000 compounds. About 6,100 (1.1%) were called active. Inconclusive means that the source gave no clear call. Such entries were picked first, then a sample of the others. Calls follow the shape of the dose curve; as a rule, active = well fitted inhibition curve with a large enough effect; inconclusive = small, poorly fitted or top-dose-only effect, or another doubt; inactive = no such curve, though single readings can be large or run the other way. A potency beside an inconclusive call is a rough fit, not a confirmed value.
# Biological target: Polyunsaturated fatty acid lipoxygenase ALOX12 (Homo sapiens) (UniProt P18054)
# Assay: Primary qHTS assay for inhibitors of human arachidonate 12S-lipoxygenase (ALOX12): Round 2
# Details: purified 12hLO, xylenol orange hydroperoxide absorbance; activity change, negative = inhibition: at 108 µM (top of the series) unless noted
# Method in brief: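 Purified human 12hLO at 150 nM in 25 mM Hepes, 0.01% Triton X-100, pH 7.0, preincubated 15 min at room temperature with compound. Reaction started with 40 uM arachidonic acid, 30 min at room temperature. Hydroperoxide measured by Fe-xylenol orange, 573/405 nm absorbance ratio.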
# % is scaled to controls: 0 for no effect and ±100 for the full control effect; potency is read from the fitted curve at half-maximal effect.
SMILES,Potency,"activity change, negative = inhibition"
Cc1cc2cc(NS(=O)(=O)c3ccc(C(C)(C)C)cc3)ccc2[nH]1,"inconclusive: 44.7 µM [inhibitor, partial curve, poor fit]",
Cc1onc(-c2ccccc2)c1C(=O)N1CCN(c2ccccn2)CC1,,inactive: 8.73%
O=C(CN1C(=O)COc2ccc(S(=O)(=O)N3CCCC3)cc21)NC1CC1,,inactive: 21.4%
O=C(N/N=C/C=C/c1cccc([N+](=O)[O-])c1)C(O)c1ccccc1 (configuration not stated),,inactive: 5.2%
Cc1cc(C)cc(NC(=O)C2C3C=CC4(O3)C2C(=O)N(CCN2CCCCC2)C4C(=O)NC2CCCCC2)c1 (configuration not stated),"inconclusive: 6.31 µM [inhibitor, full curve, poor fit]",
CNS(=O)(=O)c1cccc(C(=O)OCC(=O)c2ccc[nH]2)c1,,inactive: 217%
CCC1(c2ccccc2)NC(=S)N(c2ccc(C)c(C)c2)N1 (configuration not stated),"inconclusive: 39.8 µM [inhibitor, partial curve, poor fit]",
CC(/C=N\NC(=O)CN1CCN(S(=O)(=O)c2ccc(C)cc2)CC1)=C\c1ccccc1,"inconclusive: 112 µM [inhibitor, partial curve, poor fit]",
O=C(c1cc(-c2cccs2)nc2ccccc12)N1CCOCC1,,inactive: -2.4%
CCOc1cc(/C=C2/SC(=S)NC2=O)ccc1OC(=O)c1ccco1,"inconclusive: 39.8 µM [inhibitor, partial curve, poor fit]",
CCn1c(C(=O)NCc2ccccn2)cc2sccc21,,inactive: 1.27%
COc1cccc(-c2nc(SCc3cc(=O)c4cc(C)c(C)cc4[nH]3)n[nH]2)c1,"inconclusive: 50.1 µM [inhibitor, single point]",
CCOC(=O)c1c(NC(=S)NC)sc2c1CC(C)(C)SC2,"inconclusive: 35.5 µM [inhibitor, partial curve]",
O=C1COc2ccc(-c3csc(Nc4ccccc4C(F)(F)F)n3)cc2N1,"inconclusive: 44.7 µM [inhibitor, partial curve, poor fit]",
NC(Cc1ccc(F)cc1)c1csc(Nc2nncc3ccccc23)n1 (configuration not stated),"inconclusive: 70.8 µM [inhibitor, partial curve, poor fit]",
COc1ccc2nc(NC(=O)C3CCCO3)sc2c1 (configuration not stated),"inconclusive: 1.78 µM [inhibitor, full curve]",
COc1ccc(C)cc1NC(=O)CSc1nc2ccsc2c(=O)n1-c1ccccc1,"inconclusive: 35.5 µM [inhibitor, partial curve, poor fit]",
CCN1C(=O)C(NC(C)=O)c2cc(Br)ccc21 (configuration not stated),"inconclusive: 50.1 µM [inhibitor, partial curve, poor fit]",
CCc1ncc(CN2CCCC(C(=O)Nc3cccc(-c4ccc(F)cc4)c3)C2)cn1 (configuration not stated),"inconclusive: 50.1 µM [inhibitor, partial curve, poor fit]",
Cc1ccc(S(=O)(=O)Nc2ccc(C(=O)NC3CC3)cc2)cc1,"inconclusive: 141 µM [inhibitor, single point]",
COCCN(C(=O)CNC(=O)c1ccco1)C(C(=O)NC1CCCC1)c1ccccc1F (configuration not stated),"inconclusive: 0.316 µM [inhibitor, full curve, poor fit]",

SMILES,Potency,"activity change, negative = inhibition"
CC(C)c1nc2oc3c(=O)n(C)cnc3c2c2c1CCC2,,inactive: 1.03%
Cc1cccc(-n2nnnc2SCCCn2c(=O)c3c(ncn3C)n(C)c2=O)c1,"inconclusive: 126 µM [inhibitor, single point]",
CCCCOP(=O)(c1ccc(N(C)C)cc1)C(O)c1ccccc1F (configuration not stated),"inconclusive: 112 µM [inhibitor, partial curve, poor fit]",
CCc1ccc(S(=O)(=O)N2CCN(C3CCN(Cc4cccnc4)C3=O)CC2)cc1 (configuration not stated),"inconclusive: 28.2 µM [inhibitor, single point]",
COc1ccc(C(=O)N2C[C@@H](Oc3ccccc3)C[C@@H]2C(=O)N2CCOCC2)cc1,,inactive: 5.69%
CC(C)C[C@H]1CNC(=S)N1C[C@H]1CCCN1C[C@H](Cc1ccc(O)cc1)N1C[C@H](Cc2ccc(O)cc2)N(CCc2ccccc2)C1=S,active: 44.7 µM,
CC(C)CCc1c(O)nc(SCC(C)C)[nH]c1=O,,inactive: 1.36%
COc1ccc(CCNc2ncnc3c2CN(c2ccc(Cl)cc2)C(=O)N(C)C3)cc1,"inconclusive: 79.4 µM [inhibitor, single point]",
CC(C)CC(=O)N1CCN(Cc2ccc(Br)cc2)CC1,"inconclusive: 0.631 µM [inhibitor, full curve, poor fit]",
O=C(c1cccc(Cn2cccn2)c1)N1CCOc2c(cc(-c3csc4ccccc34)cc2OC2CCOC2)C1 (configuration not stated),"inconclusive: 100 µM [inhibitor, single point]",
CC(C)Oc1ccc(C(=O)O)cc1,,inactive: -29.9%
Cc1nnc(SCC(=O)NC2CCCc3c2cnn3-c2ccccc2F)o1 (configuration not stated),,inactive: -1.33%
Cc1ccc(OCCN2C(=O)C(=O)c3cc(C)ccc32)cc1,"inconclusive: 79.4 µM [inhibitor, partial curve, poor fit]",
O=C(Cc1cccc(F)c1)NCCc1nc2c(s1)CCCC2,"inconclusive: 35.5 µM [inhibitor, single point]",
Cc1cc(C(=O)N2C[C@@H]3CCCN4CCC[C@@H]([C@H]34)[C@H]2CCCC(=O)N2CCOCC2)nn1C,,inactive: 12.8%
Cc1cc(C)cc(NS(=O)(=O)c2ccc(-c3cc(C)no3)s2)c1,"inconclusive: 100 µM [inhibitor, partial curve, poor fit]",
COc1ccccc1NC(=O)C1=C(C)Nc2nnnn2C1c1ccccc1OC (configuration not stated),"inconclusive: 39.8 µM [inhibitor, single point]",
CCCCn1c(N)c(N(CCOC)C(=O)C2CCN(S(=O)(=O)c3ccc(C)cc3C)CC2)c(=O)[nH]c1=O,"inconclusive: 79.4 µM [inhibitor, single point]",
COC(=O)CC/C(=N/Nc1ccc(Cl)c(Cl)c1)C(=O)OC,active: 15.8 µM,
N/C(=N\N=C\c1ccc(Br)o1)c1nonc1N,"inconclusive: 112 µM [inhibitor, partial curve, poor fit]",
O=C(c1ccccc1)c1coc2ccc(O)c(CN3CCOCC3)c12,,inactive: 0%

# Rewritten tab-delimited: part of the list above.
SMILES	Potency	activity change, negative = inhibition
COc1ccc(CCNc2ncnc3c2CN(c2ccc(Cl)cc2)C(=O)N(C)C3)cc1	inconclusive: 79.4 µM [inhibitor, single point]	
CC(C)CC(=O)N1CCN(Cc2ccc(Br)cc2)CC1	inconclusive: 0.631 µM [inhibitor, full curve, poor fit]	
O=C(c1cccc(Cn2cccn2)c1)N1CCOc2c(cc(-c3csc4ccccc34)cc2OC2CCOC2)C1 (configuration not stated)	inconclusive: 100 µM [inhibitor, single point]	
